Values from PubChem BioAssay AID1224826 (NIAID, 2016)
The deposit covers about 17,000 reagents; below is an unselected part. In the full data, about 1,110 (6.6%) are marked active. 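Active means lowered or raised reporter signal; replicate intensities are raw and not normalised per plate.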 Reagents against one gene are numbered here.

Screen: 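Genes that change LPS-induced Tnf promoter activity in mouse macrophages when knocked down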 (primary screen)
Cells: RAW264.7 G9 macrophages from mouse bearing reporters for p65 (GFP) and the Tnf promoter (mCherry)
Reagents: siRNA pool against mouse genes, 100 nM
Time to read-out: 16 h of LPS stimulation, after 2 days of siRNA transfection
Treatment: bacterial lipopolysaccharide (Salmonella minnesota R595), 10 ng/ml
Measured: 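Imaged Tnf reporter mCherry in nuclei, minus background, normalised per plate to the median and expressed as robust z-scores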
Direction: Tnf reporter robust z-score: higher = stronger Tnf promoter reporter signal after LPS; Tnf reporter intensity: higher = stronger Tnf promoter reporter signal
Call rule: 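Called active when robust z-score is at most -1.3, matching the median of the Tlr4 knock-down control, or over 3; control wells and wells with under 50 cells never active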
Meaning of the calls: active = Tnf reporter clearly lowered or raised; inactive = no clear change in Tnf reporter

no.	target	reagent	Tnf reporter robust z-score	fewer than 50 cells in well	Tnf reporter intensity, replicate 1	Tnf reporter intensity, replicate 2	activity call
1	Sdad1	1	1.05	enough cells in well	181	165	inactive
2	Lcn10	1	0.85	enough cells in well	293	178	inactive
3	Ftsj1	1	0.3	enough cells in well	248	291	inactive
4	Egr2	1	-0.69	enough cells in well	191	160	inactive
5	Cngb1	1	-0.49	enough cells in well	174	171	inactive
6	Cngb1	2	-0.27	enough cells in well	181	202	inactive
7	Or4k35	1	0.02	enough cells in well	240	81	inactive
8	Ascl1	1	1.03	enough cells in well	172	250	inactive
9	Capn8	1	-0.49	enough cells in well	128	161	inactive
10	Ppp5c	1	-1.75	enough cells in well	118	64.3	active
11	Mastl	1	1.28	enough cells in well	253	256	inactive
12	Clpx	1	-0.75	enough cells in well	184	155	inactive
13	Zbed3	1	-1.1	enough cells in well	160	46.8	inactive
14	Sos1	1	0.25	enough cells in well	329	210	inactive
15	Tmem106b	1		fewer than 50 cells per well; well left out of calls	82.1	14.2	inactive
16	Pon3	1	-0.03	enough cells in well	244	191	inactive
17	Aknad1	1	0.19	enough cells in well	219	71.6	inactive
18	Glrb	1	-0.38	enough cells in well	243	101	inactive
19	Cbr4	1	2.07	enough cells in well	301	409	inactive
20	Acp1	1	-0.18	enough cells in well	138	183	inactive
21	4631423B10Rik	1	-0.81	enough cells in well	128	40.1	inactive
22	C530043K16Rik	1	0.74	enough cells in well	119	206	inactive
23	Csdc2	1	0.45	enough cells in well	224	228	inactive
24	Gzmm	1	-0.87	enough cells in well	183	110	inactive
25	Smarcal1	1	-0.61	enough cells in well	205	185	inactive
26	Oaz2	1	0.96	enough cells in well	328	233	inactive
27	Mitf	1	-0.89	enough cells in well	193	137	inactive
28	Hagh	1	1.89	enough cells in well	391	306	inactive
29	Krt32	1	0.29	enough cells in well	221	137	inactive
30	Ldah	1	-0.76	enough cells in well	213	51.3	inactive
31	Or13p3	1	2.99	enough cells in well	297	289	inactive
32	Rmc1	1	0.86	enough cells in well	216	190	inactive
33	Procr	1	0.21	enough cells in well	262	207	inactive
34	Mgat4c	1	-0.12	enough cells in well	138	217	inactive
35	Ppp1r35	1		fewer than 50 cells per well; well left out of calls	120	74.5	inactive
36	Ltv1	1	1.18	enough cells in well	344	21.4	inactive
37	Cuedc2	1	-0.58	enough cells in well	155	135	inactive

5 entries from above in another layout:
Csdc2
- Tnf reporter robust z-score: 0.45
- fewer than 50 cells in well: enough cells in well
- Tnf reporter intensity, replicate 1: 224
- Tnf reporter intensity, replicate 2: 228
- activity call: inactive

Gzmm
- Tnf reporter robust z-score: -0.87
- fewer than 50 cells in well: enough cells in well
- Tnf reporter intensity, replicate 1: 183
- Tnf reporter intensity, replicate 2: 110
- activity call: inactive

Smarcal1
- Tnf reporter robust z-score: -0.61
- fewer than 50 cells in well: enough cells in well
- Tnf reporter intensity, replicate 1: 205
- Tnf reporter intensity, replicate 2: 185
- activity call: inactive

Oaz2
- Tnf reporter robust z-score: 0.96
- fewer than 50 cells in well: enough cells in well
- Tnf reporter intensity, replicate 1: 328
- Tnf reporter intensity, replicate 2: 233
- activity call: inactive

Mitf
- Tnf reporter robust z-score: -0.89
- fewer than 50 cells in well: enough cells in well
- Tnf reporter intensity, replicate 1: 193
- Tnf reporter intensity, replicate 2: 137
- activity call: inactive

More results follow.
no.	target	reagent	Tnf reporter robust z-score	fewer than 50 cells in well	Tnf reporter intensity, replicate 1	Tnf reporter intensity, replicate 2	activity call
38	Nhlh2	1	1.73	enough cells in well	285	209	inactive
39	Coasy	1	0.5	enough cells in well	237	178	inactive
40	Bltp1	1	0.73	enough cells in well	312	138	inactive
41	Bltp1	2	0.86	enough cells in well	277	82.7	inactive
42	Or5k14	1	2.24	enough cells in well	331	202	inactive
43	Or5k14	2	-1.34	enough cells in well	104	67.9	active
44	Ep400	1	-0.44	enough cells in well	237	99.2	inactive
45	Sars2	1	1.52	enough cells in well	198	184	inactive
46	Stx12	1	0.17	enough cells in well	96.3	114	inactive
47	St8sia5	1	0.31	enough cells in well	117	106	inactive
48	Fuca2	1	-0.61	enough cells in well	95.2	159	inactive
49	Arhgap32	1	0.35	enough cells in well	267	281	inactive
50	Cd93	1	2.12	enough cells in well	253	271	inactive
51	Rnf43	1		fewer than 50 cells per well; well left out of calls	138	39.7	inactive
52	Nono	1	-0.49	enough cells in well	166	117	inactive
53	Vmn1r206	1	1.21	enough cells in well	136	151	inactive
54	Rrs1	1	-0.56	enough cells in well	128	98.8	inactive
55	Taar1	1	-0.24	enough cells in well	280	49	inactive
56	Or2aa1	1	-1.32	enough cells in well	105	64	active
57	Plpp5	1	-0.66	enough cells in well	122	133	inactive
58	Cdk8	1	1.33	enough cells in well	169	229	inactive
59	Adam5	1	-0.07	enough cells in well	227	159	inactive
60	Or6c211	1		fewer than 50 cells per well; well left out of calls	76.3	44.9	inactive
61	Wdr7	1	-0.53	enough cells in well	232	173	inactive
62	Fam243	1		fewer than 50 cells per well; well left out of calls	330	56.5	inactive
63	Spinkl	1	2.17	enough cells in well	305	334	inactive
64	Lrrc56	1	0.09	enough cells in well	124	154	inactive
65	Mgst2	1	0.41	enough cells in well	182	195	inactive
66	Tlnrd1	1	0.99	enough cells in well	365	262	inactive
67	Piezo2	1	-1.29	enough cells in well	101	108	inactive
68	Cort	1	1.77	enough cells in well	278	299	inactive
69	Dip2b	1	-1.08	enough cells in well	131	119	inactive
70	Aen	1	-0.52	enough cells in well	176	67.3	inactive
71	Klhl20	1	-1.62	enough cells in well	121	64.4	active
72	Pex13	1	-1.09	enough cells in well	154	114	inactive
73	Trub1	1	2.09	enough cells in well	398	128	inactive
74	Vmn1r228	1	-1.39	enough cells in well	65.3	42.3	active
75	Mettl24	1	-0.75	enough cells in well	143	132	inactive
